Patent US9468670B2, “Melatonin-based treatment and diagnosis of bile duct disease” (Texas A&M University System, priority 2011, dated 2016)

Assay: Liver weight, body weight and liver to body weight ratio in normal and BDL rats
Format: in vivo, rat
Settings: normal rats, tap water containing melatonin (20 mg/L) for 1 week
Description: Male 344 Fischer rats (150-175 g) were purchased from Charles River (Wilmington, Mass.) and kept in a temperature-controlled environment (22° C.) with 12:12 hr light/dark cycles. Animals were fed ad libitum and had free access to food and drinking water. […] Before each surgical procedure, animals were anesthetized with sodium pentobarbital (50 mg/kg BW, IP). All animal experiments were performed in accordance with a protocol approved by the Scott and White and Texas A&M Health Science Center Institutional Animal Care and Use Committee and conform to the Guide for the Care and Use of Laboratory Animals published by the US National Institutes of Health (NIH Publication No. 85-23, revised 1996). In all animals, wet liver weight, body weight, wet liver weight to body weight ratio, and an index of liver cell growth including cholangiocytes were measured ([…] et al., 1988).

COc1ccc2[nH]cc(CCNC(C)=O)c2c1 [melatonin]
Liver to body weight ratio: 4.5 ± 0.2 | Liver weight: 9.4 ± 0.4 gm
